Test results published in the supplement of paper PMC12889115.
This is one part of the list. These are raw signals, not scaled to a control.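 First-pass screen: polymyxin B was added at a level that permeabilizes the Salmonella outer membrane while sparing the inner membrane. DMSO wells, with and without polymyxin B, defined maximum growth. Because plates differed from one another, each plate's data were ranked separately and the compounds with the lowest OD600 were carried forward as hits.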

Test system: Salmonella enterica serovar Typhimurium SL1344
Experiment: bacterial growth OD600 after 18 h with compound and polymyxin B; higher = more bacterial growth (less inhibition)
Details: 50 µM, Mueller-Hinton broth

SMILES: CC#CCN1C(=O)NC(CCCc2ccccc2)(C2CCN(Cc3cccc(OC)c3)CC2)C1=O (stereo unspecified)
- bacterial growth OD600 (polymyxin B 0.75 µg/mL): 0.593

SMILES: CCn1nc(C(C)C)cc1C(=O)N1CCCC(CO)(Cc2ccc(F)cc2F)C1 (stereo unspecified)
- bacterial growth OD600 (polymyxin B 1 µg/mL): 0.684

SMILES: O=C(NC1CC(=O)N(CCc2cccc(Cl)c2)C1)c1ccsc1 (stereo unspecified)
- bacterial growth OD600 (polymyxin B 1 µg/mL): 0.87

SMILES: COc1ccc(CCNC(=O)CCC2(Cc3ccc(OC)cc3F)CCC(=O)N2)cc1 (stereo unspecified)
- bacterial growth OD600 (polymyxin B 0.75 µg/mL): 0.946

SMILES: COc1cccc(CN2C[C@H]3OC(=O)N(Cc4ccc(OC)c(OC)c4)[C@H]3C2)c1
- bacterial growth OD600 (polymyxin B 1 µg/mL): 1.06

SMILES: CCOC(=O)C1(Cc2ccccc2)CCCN(C2CCCC2)C1 (stereo unspecified)
- bacterial growth OD600 (polymyxin B 1 µg/mL): 0.869

SMILES: COC(=O)c1ccc(-c2noc(CN(C)CCc3ccc(OC)c(OC)c3)n2)cc1
- bacterial growth OD600 (polymyxin B 1 µg/mL): 0.708

SMILES: Cc1nc(-c2ccncc2)ncc1C(C)NC(=O)c1sccc1Cl (stereo unspecified)
- bacterial growth OD600 (polymyxin B 1 µg/mL): 0.839

SMILES: Cc1cnc(SCCN2CCOCC2)nc1C1CCCN(C(=O)CCc2ccc3c(c2)OCO3)C1 (stereo unspecified)
- bacterial growth OD600 (polymyxin B 0.75 µg/mL): 0.907

SMILES: Cc1cccc(CN2CCCC3(CCN(S(C)(=O)=O)C3)C2=O)c1 (stereo unspecified)
- bacterial growth OD600 (polymyxin B 1 µg/mL): 0.83

SMILES: COc1ccc(CCC(=O)Nc2ccc(-c3nc(CNC(=O)Cc4cccs4)c(C)o3)cc2)cc1
- bacterial growth OD600 (polymyxin B 0.75 µg/mL): 0.82

SMILES: Cc1nc(C)c(C(=O)N2CCc3c(cnc(C)c3CNC(=O)CSc3ccccc3)C2)s1
- bacterial growth OD600 (polymyxin B 0.75 µg/mL): 0.826

SMILES: CCOC(=O)N1CCN(Cc2ccc3c(c2)CN(C(=O)c2ccoc2)CCO3)CC1
- bacterial growth OD600 (polymyxin B 0.75 µg/mL): 0.931

SMILES: Cc1ccccc1-c1noc(-c2ccc(N[C@H]3CC[C@H](O)CC3)nc2)n1
- bacterial growth OD600 (polymyxin B 0.75 µg/mL): 0.001

SMILES: CCOC(=O)C1(Cc2ccc(F)cc2F)CCCN(C(=O)c2c(C)nc3ncccn23)C1 (stereo unspecified)
- bacterial growth OD600 (polymyxin B 1 µg/mL): 0.945

SMILES: CCOC(=O)N1CCN(C(=O)C2CC23CCN(C(=O)CSc2nc(C)cs2)CC3)CC1 (stereo unspecified)
- bacterial growth OD600 (polymyxin B 0.75 µg/mL): 0.813

SMILES: CO[C@H]1[C@H](NC(=O)c2ccco2)c2ccccc2C12CCN(Cc1[nH]c3c(C)cccc3c1C)CC2
- bacterial growth OD600 (polymyxin B 0.75 µg/mL): 0.782

SMILES: CCN(CC)CCNC(=O)c1cc(OC)ccc1OC1CCN(C2CCCC2)CC1
- bacterial growth OD600 (polymyxin B 1 µg/mL): 1.18

SMILES: COCC(=O)N1CCC(C2CCN(c3ncccn3)CC2)C1 (stereo unspecified)
- bacterial growth OD600 (polymyxin B 0.75 µg/mL): 0.724

SMILES: CCCCn1c(CN(C)C(C)C)cnc1S(=O)(=O)CCCC(C)C
- bacterial growth OD600 (polymyxin B 0.75 µg/mL): 0.361

SMILES: Cc1ccc2c(c1)CN(CC(=O)NCCc1nc3ccccc3n1C)CC(c1ccsc1)O2 (stereo unspecified)
- bacterial growth OD600 (polymyxin B 0.75 µg/mL): 0.003

SMILES: CCOC(=O)C1(Cc2cccc(OC)c2)CCCN(Cc2cccc3c2OCO3)C1 (stereo unspecified)
- bacterial growth OD600 (polymyxin B 1 µg/mL): 0.813

SMILES: CCOC(=O)C1(Cc2ccccc2C(F)(F)F)CCN(CCCn2cccn2)CC1
- bacterial growth OD600 (polymyxin B 1 µg/mL): 0.857

SMILES: COc1ccc(CN2CCCC(Nc3ccc(F)c(F)c3)C2)cc1OC (stereo unspecified)
- bacterial growth OD600 (polymyxin B 1 µg/mL): 0.901

SMILES: CN(CC(O)c1ccccc1)C(=O)CC1(c2ccccc2)CC(=O)N(CCc2ccccn2)C1=O (stereo unspecified)
- bacterial growth OD600 (polymyxin B 0.75 µg/mL): 0.897

SMILES: Cc1ncc2c(c1CNC(=O)c1ccccc1F)CCN(C(=O)CCc1ccc3c(c1)OCO3)C2
- bacterial growth OD600 (polymyxin B 0.75 µg/mL): 0.719

SMILES: COc1ccccc1OCC(=O)NC1CC(=O)N(Cc2ccccc2Cl)C1 (stereo unspecified)
- bacterial growth OD600 (polymyxin B 1 µg/mL): 0.931

SMILES: CCc1ncc(CNC(C)c2cnc(N(C)C3CCCCC3)nc2C)cn1 (stereo unspecified)
- bacterial growth OD600 (polymyxin B 0.75 µg/mL): 0.743

SMILES: Cc1cc2cc(C(=O)N3CCCC(CO)(CCc4ccccc4)C3)ccc2o1 (stereo unspecified)
- bacterial growth OD600 (polymyxin B 0.75 µg/mL): 0.227

SMILES: O=C(Cc1c[nH]c2ccccc12)NCC1Cc2c(F)ccc(-c3ccncc3)c2O1 (stereo unspecified)
- bacterial growth OD600 (polymyxin B 0.75 µg/mL): 0.803

SMILES: Cc1ccsc1C(=O)N1CC[C@@H](N2CCN(c3ccccc3F)CC2)[C@H](O)C1
- bacterial growth OD600 (polymyxin B 1 µg/mL): 0.976
